Reference: PubChem BioAssay AID328 (DTP/NCI, 2004)
The list is a part of this screen's results and no random one: it is rich in T/C values a quarter to a half above the control, in often repeated tests (any T/C) and in doses without a T/C. Other doses and runs of a compound stand elsewhere. T/C gives the treated animals as a percentage of the vehicle group. Some doses have a count of surviving animals in place of a T/C: the source holds a T/C of zero for them, seemingly a mark for toxic or unscored doses. Some doses without a T/C left all or most animals alive at the check, yet need not have been tolerated: survival well below the control is almost never listed, so the zero probably covers shortened survival too. Survivors were counted at the toxicity check, usually on the fifth day, unless a day is given; later deaths do not show. Schedules are NCI's codes, read here as Q, the interval in days (D) or hours (H), X, the number of doses. For survival time, the PubChem record calls one and a half times the control and up active, and a quarter to a half above the control has no call in these data; cut-offs in other NCI protocols can differ. Some T/C values are followed by the survivors on the day toxicity was checked, most often the fifth; without a count, all were alive then.

Tested on: BDF1 mice, P388 leukemia ip, median survival T/C
Assay: NCI In Vivo Anticancer Drug Screen. Data for tumor model P388 Leukemia (intraperitoneal) in B6D2F1 (BDF1) mice
Conditions: T/C endpoint: median survival time, higher T/C = longer survival
Procedure, shortened: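 Read-out is survival of treated animals expressed relative to the vehicle group, as a T/C ratio.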

[1] = dose: 100.0 mg/kg/injection, schedule: Q01DX009 (ip), vehicle: saline with Tween-80
[2] = dose: 25.0 mg/kg/injection, schedule: Q01DX009 (ip), vehicle: Klucel (hydroxypropylcellulose) (HPC)
[3] = dose: 100.0 mg/kg/injection, schedule: Q01DX009 (ip), vehicle: saline
[4] = dose: 200.0 mg/kg/injection, schedule: Q04DX003 (ip), vehicle: saline
[5] = dose: 400.0 mg/kg/injection, schedule: Q04DX003 (ip), vehicle: saline with Tween-80
[6] = dose: 200.0 mg/kg/injection, schedule: Q01DX009 (ip), vehicle: saline with Tween-80
[7] = dose: 3.0 mg/kg/injection, schedule: Q01DX009 (ip), vehicle: DMSO

CC(=O)Nc1nncs1
survivor count (dose: 400.0 mg/kg/injection, schedule: Q01DX009 (ip), vehicle: saline sonified): 3 of 6

C=C1C(=O)OC2/C=C(\C)CC(O)/C=C(/C)CC(OC(=O)C(O)(CO)C(C)S)C12 (stereo unspecified)
survivor count (dose: 400.0 mg/kg/injection, schedule: Q04DX002 (ip), vehicle: Klucel (hydroxypropylcellulose) (HPC)): 0 of 6

CCOc1ccc(/C=N/NS(=O)(=O)c2ccc(C)cc2)cc1
survivor count (dose: 100.0 mg/kg/injection, schedule: Q01DX009 (ip), vehicle: Klucel (hydroxypropylcellulose) (HPC)): 6 of 6
survivor count (dose: 400.0 mg/kg/injection, schedule: Q01DX009 (ip), vehicle: Klucel (hydroxypropylcellulose) (HPC)): 6 of 6

CCOc1nc(N)c(C(N)=O)cc1C#N
T/C [1]: 125 % of control
survivor count [1]: 6 of 6

CS(=O)(=O)Nc1ccc(Nc2c3ccccc3nc3ccccc23)cc1
T/C (dose: 25.0 mg/kg/injection, schedule: Q04DX003 (ip), vehicle: Klucel (hydroxypropylcellulose) (HPC)): 136 % of control
survivor count (dose: 75.0 mg/kg/injection, schedule: Q01DX009 (ip), vehicle: Klucel (hydroxypropylcellulose) (HPC)): 6 of 6
T/C (dose: 75.0 mg/kg/injection, schedule: Q04DX003 (ip), vehicle: Klucel (hydroxypropylcellulose) (HPC)): 140 % of control
survivor count (dose: 600.0 mg/kg/injection, schedule: Q04DX003 (ip), vehicle: saline): 6 of 6

O=[N+]([O-])c1cccc(C=Nc2cccc(C(F)(F)F)c2)c1
survivor count (dose: 12.5 mg/kg/injection, schedule: Q01DX009 (ip), vehicle: Klucel (hydroxypropylcellulose) (HPC)): 6 of 6
survivor count [2]: 6 of 6
survivor count (dose: 50.0 mg/kg/injection, schedule: Q01DX009 (ip), vehicle: Klucel (hydroxypropylcellulose) (HPC)): 6 of 6

NC(=S)c1c(N)n(C2OC(CO)C(O)C2O)c2ncnc(N)c12 (stereo unspecified)
T/C (dose: 50.0 mg/kg/injection, schedule: Q04DX003 (ip), vehicle: saline): 131 % of control
T/C (dose: 100.0 mg/kg/injection, schedule: Q04DX003 (ip), vehicle: saline): 141 % of control [5 of 6 alive]

CC1NC(C(=O)O)Cc2cc(O)c(O)cc21 (stereo unspecified)
survivor count [2]: 3 of 3

c1ccc2sc(SNC3CCCCC3)nc2c1
T/C (dose: 100.0 mg/kg/injection, schedule: Q04DX002 (ip), vehicle: saline): 125 % of control

CC1(O)Cn2c(nc3nccnc32)S1 (stereo unspecified)
survivor count [3]: 4 of 6
survivor count (dose: 200.0 mg/kg/injection, schedule: Q01DX009 (ip), vehicle: saline): 0 of 6
survivor count [4]: 6 of 6
survivor count (dose: 400.0 mg/kg/injection, schedule: Q04DX003 (ip), vehicle: saline): 0 of 6

C=CC(=O)NCNC(=O)C=C
T/C (dose: 200.0 mg/kg/injection, schedule: Q04DX003 (ip), vehicle: saline with Tween-80): 140 % of control

CCCN([Si](C)(C)C)[Si](C)(C)C
survivor count [5]: 5 of 6

NCC(=O)O.[Cl][Ga]([Cl])[Cl]
T/C (dose: 50.0 mg/kg/injection, schedule: Q01DX009 (ip), vehicle: saline): 137 % of control
T/C [3]: 141 % of control [5 of 6 alive]

CC(=O)OC1CC(OC2C(O)CC(OC3C(O)CC(OC4CCC5(C)C(CCC6C5CCC5(C)C(C7=CC(=O)OC7)C(O)CC65O)C4)OC3C)OC2C)OC(C)C1OC1OC(CO)C(O)C(O)C1O (stereo unspecified)
survivor count (dose: 50.0 mg/kg/injection, schedule: Q01DX010 (ip), vehicle: carboxymethylcellulose (CMC)): 2 of 6
survivor count (dose: 50.0 mg/kg/injection, schedule: Q04DX003 (ip), vehicle: Klucel (hydroxypropylcellulose) (HPC)): 2 of 6
survivor count (dose: 100.0 mg/kg/injection, schedule: Q01DX010 (ip), vehicle: carboxymethylcellulose (CMC)): 1 of 6
survivor count (dose: 100.0 mg/kg/injection, schedule: Q04DX003 (ip), vehicle: Klucel (hydroxypropylcellulose) (HPC)): 2 of 6

C[N+](C)(Cc1ccccc1)/N=C(\[O-])Cc1ccccc1
survivor count (dose: 200.0 mg/kg/injection, schedule: Q01DX001 (ip), vehicle: saline): 0 of 6

CN(C)N=Nc1ccc(-c2ccccc2)cc1
T/C (dose: 50.0 mg/kg/injection, schedule: Q01DX009 (ip), vehicle: saline with Tween-80): 127 % of control
survivor count [1]: 5 of 6
survivor count [6]: 0 of 6

CC(C#N)Oc1cccc2ccccc12 (stereo unspecified)
T/C (dose: 2.0 mg/kg/injection, schedule: Q01DX009 (ip), vehicle: DMSO): 130 % of control
T/C [7]: 130 % of control
survivor count [7]: 6 of 6
survivor count (dose: 4.5 mg/kg/injection, schedule: Q01DX009 (ip), vehicle: DMSO): 6 of 6
survivor count (dose: 50.0 mg/kg/injection, schedule: Q01DX009 (ip), vehicle: DMSO): 4 of 5
survivor count (dose: 100.0 mg/kg/injection, schedule: Q01DX009 (ip), vehicle: DMSO): 2 of 6
survivor count (dose: 200.0 mg/kg/injection, schedule: Q01DX009 (ip), vehicle: DMSO): 2 of 6
survivor count (dose: 200.0 mg/kg/injection, schedule: Q04DX003 (ip), vehicle: DMSO): 5 of 6
survivor count (dose: 400.0 mg/kg/injection, schedule: Q01DX009 (ip), vehicle: DMSO): 1 of 6
survivor count (dose: 400.0 mg/kg/injection, schedule: Q04DX003 (ip), vehicle: DMSO): 6 of 6

CCOC(=O)CC(C)=O.[Cu+2]
survivor count [2]: 4 of 6

CC1CCCCN1CCCO (stereo unspecified)
survivor count [4]: 2 of 6

O=[N+]([O-])c1ccc(N/N=C/CC(O)CO)c([N+](=O)[O-])c1 (stereo unspecified)
T/C (dose: 400.0 mg/kg/injection, schedule: Q01DX009 (ip), vehicle: saline): 140 % of control

O=C1/C(=C/c2ccco2)CC2CCCCC12 (stereo unspecified)
survivor count (dose: 300.0 mg/kg/injection, schedule: Q01DX001 (ip), vehicle: other): 5 of 6

C=C(C)C(O)C(O)c1cc2ccc(=O)oc2cc1OC (stereo unspecified)
survivor count (dose: 35.0 mg/kg/injection, schedule: Q01DX009 (ip), vehicle: carboxymethylcellulose (CMC)): 6 of 6

COc1cc([C@@H]2c3cc4c(cc3[C@H](O)[C@H]3COC(=O)[C@@H]23)OCO4)cc(OC)c1OC
T/C (dose: 15.4 mg/kg/injection, schedule: Q01DX010 (ip), vehicle: carboxymethylcellulose (CMC)): 145 % of control
survivor count (dose: 60.0 mg/kg/injection, schedule: Q01DX010 (ip), vehicle: carboxymethylcellulose (CMC)): 6 of 6
T/C (dose: 100.0 mg/kg/injection, schedule: Q04DX003 (ip), vehicle: saline sonified): 140 % of control
survivor count (dose: 120.0 mg/kg/injection, schedule: Q01DX010 (ip), vehicle: carboxymethylcellulose (CMC)): 5 of 6
survivor count (dose: 300.0 mg/kg/injection, schedule: Q04DX003 (ip), vehicle: saline sonified): 5 of 6

CCC12C=CCN3CCC4(c5cc(C(c6ccc(OC)cc6)c6c(CN7CCCCC7)c7ccccc7n6C)c(OC)cc5N(C)C4C(O)(C(=O)OC)C1OC(C)=O)C32 (stereo unspecified)
survivor count (dose: 0.3 mg/kg/injection, schedule: Q01DX009 (ip), vehicle: saline): 6 of 6
survivor count (dose: 0.6 mg/kg/injection, schedule: Q01DX009 (ip), vehicle: saline): 6 of 6
survivor count (dose: 4.0 mg/kg/injection, schedule: Q01DX009 (ip), vehicle: saline): 6 of 6
survivor count (dose: 8.0 mg/kg/injection, schedule: Q01DX009 (ip), vehicle: saline): 5 of 6
survivor count (dose: 16.0 mg/kg/injection, schedule: Q01DX009 (ip), vehicle: saline): 6 of 6

CCNC(C)(C)C(O)c1ccc(Cl)s1 (stereo unspecified)
survivor count [6]: 3 of 6
survivor count (dose: 300.0 mg/kg/injection, schedule: Q01DX009 (ip), vehicle: saline with Tween-80): 1 of 6
survivor count [5]: 2 of 6
